Positions count from the first letter of the chain named. Results are given in words; binding and its absence hold for the method and conditions named. Some binding calls cover weakened binding; strength is not graded here.
B1: mAb 4A2 (antibody, V domains shown)
VH: QVLLEESGGGVVQPGRSLRLSCAGSGFTFNRHGIHWVRQAPGKGLEWVTVISSDGANQQYAESVKGRFIISRDNSKNTVYLEMNSLRNDDTGVYFCARDGRCEGERCYSGVTDFWGQGTLV
VL: EIVLTQSPATLSLSPGERATLSCRASQNIGGYLAWFQQKAGQAPRLLIYDASIRATGIPARFSGSGSGTDFTLTISSLEPEDFAVYYCQQRNSWPPLTFG
notes: Human mAb
B2: MAB316 (antibody, V domains shown)
VH: QVQLVQSGGGVVQPGRSLTLSCAASGFTFSGFSLHWVRQAPGKGLQWVAVISFDGNHKHFADSLKGRFTISRDNSKNTLYLQINDLRGEDTAVYYCARDGRAVDGFSGILDFWGQGTLVSVSS
VL: EIVMTQSPATLSLSPGERATLSCRASQSVGRYLTWFQQKPGQAPRLLIYDASERATGVPARFSGSGSGTDFTLTISSLEPEDFAVYYCQQRSNWPPLTFGGGTKVEIK
B3: MAB338 (antibody, V domains shown)
VH: QVQLVESGGGVVQPGRSLRLSCSGSGFTFSDYNLHWVRQAPGKGLEWVAVISIDGTNKHHADSVKGRFTISRDNSKNTVNLEMSRLKAEDTAVYYCVRDGRSIGGYSGIFDPWGQGTLVTVSS
VL: B2 VL with M4L, G30D, T34A, F36Y, E53Q, V58I, T74A, F83V, V105I
B4: mAb 19B10 (antibody, V domains shown)
VH: QVQLQQSGPGLVKPSQTLSLTCTVSGGSISSGDFCWNWIRQPPGKGLEWIGYICYTGDTYYNPPLNSRVTISVDRSRNQISLRLSSVTAADTAVYYCAREDRRQLHSRPYFYYGLDVWGRGTKVTVSS
VL: EIVMTQSPLSLPVTPGETASISCRSSQSLLHSNGHNYLDWYLQKPGQSPHLLIYLGSIRASGVPDRFSGSGTGTDFTLKISRVEAEDVGVYYCMQALQTPNTFGQGTKLEIRR
notes: Human mAb

Sequences of proteins named here, by UniProt entry; tags and fusion partners are left off. Residues count along the entry.
UniProt P06473, residues 32-906: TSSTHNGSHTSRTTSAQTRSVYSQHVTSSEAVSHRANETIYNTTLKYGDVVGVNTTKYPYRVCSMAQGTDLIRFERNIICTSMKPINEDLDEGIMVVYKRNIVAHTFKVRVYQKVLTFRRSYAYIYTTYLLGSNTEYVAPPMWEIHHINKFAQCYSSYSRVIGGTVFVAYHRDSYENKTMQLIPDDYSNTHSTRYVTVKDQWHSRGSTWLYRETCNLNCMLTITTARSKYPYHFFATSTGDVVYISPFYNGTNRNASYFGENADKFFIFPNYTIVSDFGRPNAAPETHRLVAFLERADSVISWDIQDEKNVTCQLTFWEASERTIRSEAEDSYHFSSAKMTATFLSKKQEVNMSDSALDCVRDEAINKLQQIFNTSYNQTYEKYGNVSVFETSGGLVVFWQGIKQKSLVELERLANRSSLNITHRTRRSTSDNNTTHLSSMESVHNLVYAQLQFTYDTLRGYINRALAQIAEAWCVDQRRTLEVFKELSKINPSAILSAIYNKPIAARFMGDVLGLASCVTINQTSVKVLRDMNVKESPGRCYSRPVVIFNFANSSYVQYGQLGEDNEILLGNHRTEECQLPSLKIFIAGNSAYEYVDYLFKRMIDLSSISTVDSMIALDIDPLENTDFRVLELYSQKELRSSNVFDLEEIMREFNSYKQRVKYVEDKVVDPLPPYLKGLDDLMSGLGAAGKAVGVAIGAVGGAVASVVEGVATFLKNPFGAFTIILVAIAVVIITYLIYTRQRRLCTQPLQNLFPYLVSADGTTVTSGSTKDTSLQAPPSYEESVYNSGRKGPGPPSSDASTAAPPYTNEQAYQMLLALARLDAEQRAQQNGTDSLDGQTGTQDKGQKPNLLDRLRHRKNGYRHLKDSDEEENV

Key:
[1] = target: AD-2 peptide … (human cytomegalovirus (CMV)); assay: screening of cloned mAbs on the AD-2 peptide
[2] = target: CMV gB protein (strain AD169), purified (human cytomegalovirus (CMV), strain AD169) (UniProt P06473); assay: screening of cloned mAbs on recombinant gB
[3] = target: CMV gB protein (strain AD169), purified (human cytomegalovirus (CMV), strain AD169) (UniProt P06473); assay: ELISA on purified gB protein
[4] = target: AD-2 peptide … (human cytomegalovirus (CMV)); assay: ELISA on the AD-2 peptide
[5] = target: CMV gB protein (strain AD169), purified (human cytomegalovirus (CMV), strain AD169) (UniProt P06473); assay: told with the gB binding kinetics (ForteBio biosensor); data not shown

Binder	binding [1]	binding [2]	binding [3]	binding [4]	binding [5]
B1	binds	binds	binds	binds	
B2					binds
B3					binds
B4		binds	binds		

— US20150252099A1 (TRELLIS BIOSCIENCE, published 2015)
